The values below come from publication PMC12143594.

Sequences of proteins named here, by UniProt entry; tags and fusion partners are left off.
UniProt O60934: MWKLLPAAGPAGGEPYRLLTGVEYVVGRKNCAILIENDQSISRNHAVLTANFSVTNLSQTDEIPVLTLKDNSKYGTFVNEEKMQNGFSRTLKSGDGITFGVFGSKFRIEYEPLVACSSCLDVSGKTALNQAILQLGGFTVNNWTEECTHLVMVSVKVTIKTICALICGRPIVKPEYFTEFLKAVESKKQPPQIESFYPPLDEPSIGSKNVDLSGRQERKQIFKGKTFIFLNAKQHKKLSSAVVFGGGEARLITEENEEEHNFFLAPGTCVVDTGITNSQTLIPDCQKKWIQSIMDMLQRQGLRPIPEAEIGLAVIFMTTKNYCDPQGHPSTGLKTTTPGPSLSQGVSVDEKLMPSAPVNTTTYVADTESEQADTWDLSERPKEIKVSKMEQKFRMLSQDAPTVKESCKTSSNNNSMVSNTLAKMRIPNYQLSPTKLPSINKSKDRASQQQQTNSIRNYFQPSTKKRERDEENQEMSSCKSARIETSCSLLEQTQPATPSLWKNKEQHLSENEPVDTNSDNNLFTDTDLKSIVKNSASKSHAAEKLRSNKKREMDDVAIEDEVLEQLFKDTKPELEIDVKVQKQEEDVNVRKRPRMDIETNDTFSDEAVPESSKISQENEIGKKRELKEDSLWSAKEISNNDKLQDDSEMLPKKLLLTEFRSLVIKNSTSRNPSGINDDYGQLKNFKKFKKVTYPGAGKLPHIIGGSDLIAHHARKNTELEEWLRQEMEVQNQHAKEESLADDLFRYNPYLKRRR
UniProt Q92878: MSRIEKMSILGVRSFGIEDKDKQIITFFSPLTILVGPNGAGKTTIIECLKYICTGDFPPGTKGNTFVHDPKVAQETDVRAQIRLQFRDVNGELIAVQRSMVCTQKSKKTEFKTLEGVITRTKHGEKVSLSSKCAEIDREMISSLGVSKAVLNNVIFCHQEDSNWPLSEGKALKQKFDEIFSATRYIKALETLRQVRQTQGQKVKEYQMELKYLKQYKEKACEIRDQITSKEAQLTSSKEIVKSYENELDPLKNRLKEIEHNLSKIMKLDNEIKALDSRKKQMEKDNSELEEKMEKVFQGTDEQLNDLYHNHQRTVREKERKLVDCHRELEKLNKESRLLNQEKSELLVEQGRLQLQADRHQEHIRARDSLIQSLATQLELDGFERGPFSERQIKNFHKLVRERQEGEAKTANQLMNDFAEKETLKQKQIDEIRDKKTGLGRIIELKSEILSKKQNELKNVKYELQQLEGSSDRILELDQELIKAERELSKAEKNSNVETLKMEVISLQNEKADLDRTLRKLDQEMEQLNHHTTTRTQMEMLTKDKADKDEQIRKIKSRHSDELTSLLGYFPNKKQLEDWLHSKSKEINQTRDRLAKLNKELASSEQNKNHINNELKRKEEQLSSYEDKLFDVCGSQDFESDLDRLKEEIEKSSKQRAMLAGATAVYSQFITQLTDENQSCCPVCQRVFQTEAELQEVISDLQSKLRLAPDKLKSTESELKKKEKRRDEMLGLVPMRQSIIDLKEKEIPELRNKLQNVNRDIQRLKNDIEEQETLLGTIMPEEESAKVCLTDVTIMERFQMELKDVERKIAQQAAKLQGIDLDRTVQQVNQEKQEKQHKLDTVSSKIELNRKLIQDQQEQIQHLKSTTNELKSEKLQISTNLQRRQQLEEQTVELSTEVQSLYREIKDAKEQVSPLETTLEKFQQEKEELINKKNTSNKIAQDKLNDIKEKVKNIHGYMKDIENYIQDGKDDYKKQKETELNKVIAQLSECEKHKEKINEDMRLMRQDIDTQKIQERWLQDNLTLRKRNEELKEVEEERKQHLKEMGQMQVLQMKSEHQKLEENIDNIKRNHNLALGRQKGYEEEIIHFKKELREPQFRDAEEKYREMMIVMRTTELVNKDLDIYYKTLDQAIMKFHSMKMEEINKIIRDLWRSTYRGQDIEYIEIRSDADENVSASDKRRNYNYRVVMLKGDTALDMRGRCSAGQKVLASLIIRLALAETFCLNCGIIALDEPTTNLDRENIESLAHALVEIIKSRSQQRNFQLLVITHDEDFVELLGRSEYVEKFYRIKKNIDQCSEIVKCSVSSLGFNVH
UniProt P31749: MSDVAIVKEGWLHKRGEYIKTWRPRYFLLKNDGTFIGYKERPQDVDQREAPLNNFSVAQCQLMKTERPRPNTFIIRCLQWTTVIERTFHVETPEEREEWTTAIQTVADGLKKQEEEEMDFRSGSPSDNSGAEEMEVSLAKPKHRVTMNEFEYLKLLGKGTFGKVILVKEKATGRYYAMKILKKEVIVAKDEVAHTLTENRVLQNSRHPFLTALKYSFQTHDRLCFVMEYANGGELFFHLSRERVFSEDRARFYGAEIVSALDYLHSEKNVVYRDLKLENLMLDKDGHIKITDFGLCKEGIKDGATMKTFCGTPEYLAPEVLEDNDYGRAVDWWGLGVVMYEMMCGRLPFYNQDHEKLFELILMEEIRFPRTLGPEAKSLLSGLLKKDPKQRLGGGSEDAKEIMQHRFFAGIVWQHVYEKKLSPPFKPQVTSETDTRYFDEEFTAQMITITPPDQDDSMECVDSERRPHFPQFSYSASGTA

These are yes or no findings as the source states them, for the method shown. In cells and extracts the contact can be indirect. Some results given as binding are weak or reduced against the parent protein; the word gives no strength. For some of these results: Tags and fused reporters may be left off the sequences shown.

Assay [1] addresses NBS1 (human (endogenous in GC92)) (UniProt O60934). As to the kind of experiment: proximity ligation; Duolink in situ PLA on fixed, permeabilised cells; antibody pairs anti-MRE11/anti-NBS1, anti-MRE11/anti-PKB, anti-RAD50/anti-PKB, anti-NBS1/anti-HA; with or without 5 Gy IR, with or without PKB or PKB kd expression.
Another assay addresses T1, FLAG-MRE11 WT (UniProt P49959).
T1 sequence: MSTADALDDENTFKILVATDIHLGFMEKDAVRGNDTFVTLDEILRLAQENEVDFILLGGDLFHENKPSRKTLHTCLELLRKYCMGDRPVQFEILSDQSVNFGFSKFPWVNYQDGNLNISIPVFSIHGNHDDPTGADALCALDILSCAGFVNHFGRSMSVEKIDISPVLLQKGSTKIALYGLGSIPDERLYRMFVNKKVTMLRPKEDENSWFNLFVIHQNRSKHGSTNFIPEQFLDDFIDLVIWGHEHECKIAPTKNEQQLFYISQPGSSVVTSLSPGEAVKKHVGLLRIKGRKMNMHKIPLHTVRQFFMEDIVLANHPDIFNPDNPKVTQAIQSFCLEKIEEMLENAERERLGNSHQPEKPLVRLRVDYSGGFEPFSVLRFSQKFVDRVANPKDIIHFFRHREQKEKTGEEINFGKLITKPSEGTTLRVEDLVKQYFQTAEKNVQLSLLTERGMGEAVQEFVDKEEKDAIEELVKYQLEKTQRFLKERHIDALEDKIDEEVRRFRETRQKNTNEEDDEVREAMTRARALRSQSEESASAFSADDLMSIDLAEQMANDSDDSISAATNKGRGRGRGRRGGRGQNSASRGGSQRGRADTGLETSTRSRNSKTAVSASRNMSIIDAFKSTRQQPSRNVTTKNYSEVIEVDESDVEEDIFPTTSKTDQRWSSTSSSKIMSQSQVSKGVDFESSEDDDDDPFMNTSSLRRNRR
As to the kind of experiment: co-IP; anti-FLAG (M2) immunoprecipitation of FLAG-MRE11 from extracts of GC92 cells overexpressing HA-PKB and FLAG-MRE11; 25 mM Tris-HCl pH 7.5, 150 mM NaCl, 1 mM EDTA, 0.5% NP40; extracts treated with DNase I; HA-PKB detected by anti-HA western blot. On the technique in general: A western blot detects proteins with antibodies after separation by electrophoresis.

In assay [2] the target is T2, MRE11 (human (endogenous in GC92)) (UniProt P49959).
T2 sequence: T1 sequence
In words: proximity ligation; Duolink in situ PLA on fixed, permeabilised cells; antibody pairs anti-MRE11/anti-NBS1, anti-MRE11/anti-PKB, anti-RAD50/anti-PKB, anti-NBS1/anti-HA; with or without 5 Gy IR, with or without PKB or PKB kd expression.

In assay [3] the target is RAD50 (human (endogenous in GC92)) (UniProt Q92878). The description is as above.

As for “HA-PKB (from UniProt P31749 1-480) (enzyme)”, the binding result (in assay [1]; with FLAG-MRE11 WT) was “binds” each time.

Consider “PKB (from UniProt P31749 1-480) (enzyme)”, for which the binding entry in assay [2] and in assay [3] was “binds” throughout.
